Experimental data: PubChem BioAssay AID602196 (INSERM, 2012)
Shown is a random part of about 23,000 reagents. Over the whole deposit, 455 (2%) were called active. 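Active includes both protection and sensitisation; some change values fall well beyond the stated -50 to +50 range.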 Entries without a mark were called inactive. The record does not give: the amount of reagent.

Screen: 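Knock-downs that protect lung cancer cells from cisplatin or sensitise them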
System: human A549 lung cancer cells
Reagent: siRNA pair against human genes
Duration: 48 h transfection before cisplatin; time from cisplatin to read-out not stated
Challenge: cisplatin at a dose killing half of control-siRNA cells; exact dose and duration not given
Measured: 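Shift in cisplatin death relative to control siRNA, from -50 (all cells die) to +50 (no cells die); siRNAs harmful on their own scored 0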
Scale: two-siRNA summed score (-2 to +2): higher = both siRNAs protect from cisplatin killing; -2 means both sensitise; mean protection from cisplatin (shift in death) and protection from cisplatin (shift in death), siRNA C and protection from cisplatin (shift in death), siRNA D: higher = protection from cisplatin killing
Call rule: 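Each siRNA scores 0 if harmful alone by LDH or WST-1, otherwise +1 if it reduces and -1 if it increases cisplatin killing; a gene is active when both siRNAs agree (sum +2 or -2)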
Calls: active = both siRNAs shift cisplatin killing the same way; inactive = no consistent shift, or siRNA harmful alone

gene | two-siRNA summed score (-2 to +2) | mean protection from cisplatin (shift in death) (%) | protection from cisplatin (shift in death), siRNA C (%) | protection from cisplatin (shift in death), siRNA D (%)
WDR64 | 0 | 16.6 | 19.6 | 13.7
LOC441456 | 0 | 0.6 | 4.3 | -3
HSD17B10 | 0 | 7.3 | 16.9 | -2.2
LOC220429 | 0 | 19.6 | 22.1 | 17.1
SYT5 | 0 | 5.2 | 11.2 | -0.9
BORCS5 | 0 | 7.1 | 4 | 10.1
LOC442611 | 0 | -1.9 | 1.7 | -5.5
EIF2B2 | -1 | -6.1 | 5.2 | -17.3
LOC285382 | 0 | 10.5 | 6.8 | 14.2
QKI | -1 | -5.2 | 1.4 | -11.8
LOC440096 | 0 | 3.4 | 5.5 | 1.3
INKA2 | 0 | 0.4 | 8.8 | -8.1
KIAA1935 | 0 | 16.9 | 19.4 | 14.4
DCUN1D5 | 0 | 1.6 | 9.5 | -6.2

Next part; the last 3 above are carried over.
gene | two-siRNA summed score (-2 to +2) | mean protection from cisplatin (shift in death) (%) | protection from cisplatin (shift in death), siRNA C (%) | protection from cisplatin (shift in death), siRNA D (%)
INKA2 | 0 | 0.4 | 8.8 | -8.1
KIAA1935 | 0 | 16.9 | 19.4 | 14.4
DCUN1D5 | 0 | 1.6 | 9.5 | -6.2
DCDC2 | 0 | 0.5 | -4.8 | 5.9
DDAH1 | 0 | 5.7 | 5.1 | 6.3
CD1B | 0 | 4.6 | 13.6 | -4.4
SGPP2 | 0 | 1.9 | -7.7 | 11.4
DBR1 | 0 | -0.4 | 3.9 | -4.8
ASGR1 | 0 | 23 | 41.7 | 4.2
STAB1 | 0 | 0 | 6.4 | -6.4
UCHL5 | 0 | -28.6 | -21.2 | -36
VRK3 | 0 | 3.5 | 7.4 | -0.3
